No constants are given. Whether binding was seen depends on the method and setting. For some assays here: In cells and extracts the contact can be indirect. Some entries that bind do so weakly or less than the wild type. For some assays here: Where a sequence is shown, tags or fusion partners need not be part of it.

Sequences of proteins named here, by UniProt entry; tags and fusion partners are left off. A change or cut given only in a name is not applied to a line headed by its entry.
UniProt P50085: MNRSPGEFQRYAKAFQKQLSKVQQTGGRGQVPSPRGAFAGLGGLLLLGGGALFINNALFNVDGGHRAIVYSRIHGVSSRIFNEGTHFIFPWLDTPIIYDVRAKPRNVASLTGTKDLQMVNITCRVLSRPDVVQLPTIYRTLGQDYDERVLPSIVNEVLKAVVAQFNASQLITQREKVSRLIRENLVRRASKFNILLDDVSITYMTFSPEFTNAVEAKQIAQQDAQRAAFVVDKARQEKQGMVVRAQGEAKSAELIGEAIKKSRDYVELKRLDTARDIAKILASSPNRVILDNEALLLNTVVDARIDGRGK
UniProt P39925: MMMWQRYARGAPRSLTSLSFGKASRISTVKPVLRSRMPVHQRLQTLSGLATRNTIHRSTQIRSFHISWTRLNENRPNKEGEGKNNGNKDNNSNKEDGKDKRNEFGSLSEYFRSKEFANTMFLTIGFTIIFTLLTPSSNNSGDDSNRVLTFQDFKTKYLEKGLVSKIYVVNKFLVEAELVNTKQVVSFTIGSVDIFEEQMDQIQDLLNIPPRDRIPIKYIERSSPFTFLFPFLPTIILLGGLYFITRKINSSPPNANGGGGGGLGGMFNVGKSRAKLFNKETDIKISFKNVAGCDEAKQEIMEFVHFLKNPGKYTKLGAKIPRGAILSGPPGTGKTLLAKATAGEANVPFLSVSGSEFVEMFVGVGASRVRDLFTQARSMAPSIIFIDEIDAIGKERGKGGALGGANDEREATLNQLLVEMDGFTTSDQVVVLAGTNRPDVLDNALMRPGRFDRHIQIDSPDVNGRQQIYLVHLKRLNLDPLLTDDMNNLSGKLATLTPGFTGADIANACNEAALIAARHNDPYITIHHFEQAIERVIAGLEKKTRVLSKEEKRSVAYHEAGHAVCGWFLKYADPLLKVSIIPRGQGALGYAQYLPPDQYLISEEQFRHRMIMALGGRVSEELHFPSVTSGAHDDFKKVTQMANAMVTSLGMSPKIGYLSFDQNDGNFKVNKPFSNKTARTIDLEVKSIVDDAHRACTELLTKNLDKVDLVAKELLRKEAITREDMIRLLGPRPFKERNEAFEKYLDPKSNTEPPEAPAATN
UniProt P40341: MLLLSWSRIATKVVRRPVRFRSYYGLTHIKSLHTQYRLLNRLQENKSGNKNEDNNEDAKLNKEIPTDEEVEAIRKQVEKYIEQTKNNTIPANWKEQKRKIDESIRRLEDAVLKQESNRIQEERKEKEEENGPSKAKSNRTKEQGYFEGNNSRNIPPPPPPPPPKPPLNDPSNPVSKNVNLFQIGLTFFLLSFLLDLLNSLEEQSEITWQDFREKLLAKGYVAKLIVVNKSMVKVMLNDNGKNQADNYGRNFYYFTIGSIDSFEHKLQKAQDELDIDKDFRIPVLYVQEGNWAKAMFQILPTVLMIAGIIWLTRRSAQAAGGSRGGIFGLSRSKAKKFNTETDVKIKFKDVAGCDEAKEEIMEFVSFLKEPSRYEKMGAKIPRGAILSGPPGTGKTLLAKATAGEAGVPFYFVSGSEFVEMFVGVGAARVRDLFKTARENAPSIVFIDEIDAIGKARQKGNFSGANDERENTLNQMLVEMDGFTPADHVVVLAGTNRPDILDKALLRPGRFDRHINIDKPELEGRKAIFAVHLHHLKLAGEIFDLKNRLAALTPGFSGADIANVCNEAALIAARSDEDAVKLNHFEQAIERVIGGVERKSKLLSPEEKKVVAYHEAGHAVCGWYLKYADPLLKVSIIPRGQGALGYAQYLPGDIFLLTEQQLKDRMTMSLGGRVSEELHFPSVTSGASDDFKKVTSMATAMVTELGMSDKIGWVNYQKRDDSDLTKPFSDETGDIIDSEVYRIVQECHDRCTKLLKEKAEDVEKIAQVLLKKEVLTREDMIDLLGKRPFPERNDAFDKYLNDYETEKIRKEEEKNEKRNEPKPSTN
UniProt P39940: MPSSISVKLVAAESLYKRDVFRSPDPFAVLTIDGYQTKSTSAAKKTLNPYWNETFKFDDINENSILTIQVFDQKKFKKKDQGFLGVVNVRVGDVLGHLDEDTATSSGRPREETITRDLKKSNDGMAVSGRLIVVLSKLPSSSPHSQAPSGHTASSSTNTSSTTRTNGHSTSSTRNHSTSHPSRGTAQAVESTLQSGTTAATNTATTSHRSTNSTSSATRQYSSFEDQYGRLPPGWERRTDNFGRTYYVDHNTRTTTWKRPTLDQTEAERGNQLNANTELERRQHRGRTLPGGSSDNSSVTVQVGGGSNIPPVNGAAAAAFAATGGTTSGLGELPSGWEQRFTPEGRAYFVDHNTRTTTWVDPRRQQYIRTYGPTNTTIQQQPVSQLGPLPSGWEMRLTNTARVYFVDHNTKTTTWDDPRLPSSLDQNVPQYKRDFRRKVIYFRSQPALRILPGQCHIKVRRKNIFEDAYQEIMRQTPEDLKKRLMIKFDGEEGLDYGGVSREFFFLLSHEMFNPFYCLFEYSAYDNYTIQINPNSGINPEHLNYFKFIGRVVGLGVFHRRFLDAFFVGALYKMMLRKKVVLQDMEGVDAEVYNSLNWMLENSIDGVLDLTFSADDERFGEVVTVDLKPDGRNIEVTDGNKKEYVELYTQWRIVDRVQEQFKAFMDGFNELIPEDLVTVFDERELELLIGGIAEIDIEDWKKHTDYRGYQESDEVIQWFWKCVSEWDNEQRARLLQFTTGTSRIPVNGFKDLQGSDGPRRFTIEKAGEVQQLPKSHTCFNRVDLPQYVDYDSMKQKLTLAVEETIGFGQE
UniProt P25694: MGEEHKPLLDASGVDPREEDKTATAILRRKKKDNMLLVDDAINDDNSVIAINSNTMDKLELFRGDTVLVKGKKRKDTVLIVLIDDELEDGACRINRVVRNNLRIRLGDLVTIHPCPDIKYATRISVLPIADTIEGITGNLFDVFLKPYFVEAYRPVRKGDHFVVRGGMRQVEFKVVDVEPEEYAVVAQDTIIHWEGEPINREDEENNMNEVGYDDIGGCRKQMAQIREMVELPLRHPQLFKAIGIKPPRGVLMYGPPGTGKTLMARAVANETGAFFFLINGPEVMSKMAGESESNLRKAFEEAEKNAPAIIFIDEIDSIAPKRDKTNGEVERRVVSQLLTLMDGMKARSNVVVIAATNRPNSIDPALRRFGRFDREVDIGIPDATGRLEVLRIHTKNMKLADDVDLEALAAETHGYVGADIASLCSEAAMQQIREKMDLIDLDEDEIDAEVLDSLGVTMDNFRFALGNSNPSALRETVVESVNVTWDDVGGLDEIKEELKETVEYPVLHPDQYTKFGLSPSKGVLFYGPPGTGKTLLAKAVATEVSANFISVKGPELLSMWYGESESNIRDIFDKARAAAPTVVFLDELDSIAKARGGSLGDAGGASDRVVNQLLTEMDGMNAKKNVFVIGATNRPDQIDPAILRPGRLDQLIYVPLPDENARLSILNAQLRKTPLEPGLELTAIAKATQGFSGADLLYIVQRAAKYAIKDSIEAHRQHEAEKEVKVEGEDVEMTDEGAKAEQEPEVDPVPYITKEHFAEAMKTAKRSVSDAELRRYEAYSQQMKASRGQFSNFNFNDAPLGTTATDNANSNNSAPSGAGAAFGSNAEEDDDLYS

Experimental findings from article PMC9892010 are described below.

One experiment has as its target T1, Tom40–HA (S. cerevisiae) (UniProt P23644).
T1 sequence: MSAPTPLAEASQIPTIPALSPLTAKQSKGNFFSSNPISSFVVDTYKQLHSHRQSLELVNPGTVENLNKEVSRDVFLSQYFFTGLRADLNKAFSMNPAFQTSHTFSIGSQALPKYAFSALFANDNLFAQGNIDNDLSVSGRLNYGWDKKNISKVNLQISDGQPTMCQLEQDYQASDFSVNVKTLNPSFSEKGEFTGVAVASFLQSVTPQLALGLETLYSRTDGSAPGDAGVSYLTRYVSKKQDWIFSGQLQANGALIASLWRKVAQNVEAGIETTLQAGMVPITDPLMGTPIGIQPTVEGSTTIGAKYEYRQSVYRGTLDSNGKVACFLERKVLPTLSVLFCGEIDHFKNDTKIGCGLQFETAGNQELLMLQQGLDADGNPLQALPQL
Put plainly: co-IP; cell extracts of Tom40–HA strains (also in pth2∆, ubx2∆ and tom70∆ backgrounds) lysed with 1% digitonin, anti-HA affinity matrix, SDS–PAGE and immunodetection; the interaction of Rsp5 is called impaired in tom70∆.

The target of a further experiment is T2, Ubx2–HA (S. cerevisiae) (UniProt Q04228).
T2 sequence: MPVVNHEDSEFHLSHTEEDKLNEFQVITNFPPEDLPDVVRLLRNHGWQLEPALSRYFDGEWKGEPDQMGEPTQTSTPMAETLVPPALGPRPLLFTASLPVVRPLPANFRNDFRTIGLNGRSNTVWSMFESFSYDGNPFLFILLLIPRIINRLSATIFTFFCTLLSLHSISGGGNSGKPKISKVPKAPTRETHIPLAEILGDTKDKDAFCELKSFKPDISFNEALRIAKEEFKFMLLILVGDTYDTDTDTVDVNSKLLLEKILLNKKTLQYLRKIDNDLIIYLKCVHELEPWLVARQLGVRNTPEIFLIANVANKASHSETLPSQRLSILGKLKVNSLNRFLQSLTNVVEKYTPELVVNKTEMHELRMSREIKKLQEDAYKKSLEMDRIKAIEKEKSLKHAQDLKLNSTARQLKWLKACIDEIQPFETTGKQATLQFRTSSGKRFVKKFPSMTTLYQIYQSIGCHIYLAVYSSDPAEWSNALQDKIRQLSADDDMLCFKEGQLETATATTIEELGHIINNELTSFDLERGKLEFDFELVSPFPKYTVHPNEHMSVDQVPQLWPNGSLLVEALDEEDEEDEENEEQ
Put plainly: co-IP; isolated Ubx2–HA mitochondria lysed with 1% digitonin, anti-HA affinity matrix, SDS–PAGE and immunodetection.

The target in experiment [1] is T3, Phb1–protein A (S. cerevisiae) (UniProt P40961).
T3 sequence: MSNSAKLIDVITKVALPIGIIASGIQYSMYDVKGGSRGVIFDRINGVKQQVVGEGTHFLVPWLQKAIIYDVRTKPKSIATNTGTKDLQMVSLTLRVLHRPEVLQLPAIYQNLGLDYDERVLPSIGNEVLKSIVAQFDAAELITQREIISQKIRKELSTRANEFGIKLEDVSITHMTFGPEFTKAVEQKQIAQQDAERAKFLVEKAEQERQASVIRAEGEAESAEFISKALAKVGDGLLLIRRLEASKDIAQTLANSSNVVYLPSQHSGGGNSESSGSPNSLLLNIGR
Put plainly: pull-down; Phb1–protein A mitochondria lysed with 1% digitonin, IgG Sepharose, elution by TEV protease, immunodetection.

Experiment [2] addresses prohibitin/m-AAA supercomplex (S. cerevisiae (endogenous in yeast)) (UniProt P40961+P50085+P39925+P40341). Nature of the experiment: native gel or EMSA; complexome profiling (csBN–MS): yeast mitochondria lysed with 1% digitonin (protein:digitonin 1:8), blue native gradient gel 2–13%, cryo-sliced into 245 slices, quantitative MS; co-migration of abundance–mass profiles. Background: Mobility shift assays separate free from complexed probe on a gel.

The target in a further experiment is T4, Cox4His (S. cerevisiae) (UniProt P04037).
T4 sequence: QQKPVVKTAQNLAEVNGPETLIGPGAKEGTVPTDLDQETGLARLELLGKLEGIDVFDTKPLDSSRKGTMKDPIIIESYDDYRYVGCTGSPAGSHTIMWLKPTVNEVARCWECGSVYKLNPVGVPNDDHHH
Put plainly: pull-down; isolated mitochondria with a His-tagged protein (Tom20–His, Pth2His, Cox4His) lysed with 1% digitonin, 10 mM imidazole, Ni-NTA agarose, elution with 250 mM imidazole, SDS–PAGE and immunodetection.

Experiment [3] deals with T5, Sam50 (S. cerevisiae (endogenous in yeast)) (UniProt P53969).
T5 sequence: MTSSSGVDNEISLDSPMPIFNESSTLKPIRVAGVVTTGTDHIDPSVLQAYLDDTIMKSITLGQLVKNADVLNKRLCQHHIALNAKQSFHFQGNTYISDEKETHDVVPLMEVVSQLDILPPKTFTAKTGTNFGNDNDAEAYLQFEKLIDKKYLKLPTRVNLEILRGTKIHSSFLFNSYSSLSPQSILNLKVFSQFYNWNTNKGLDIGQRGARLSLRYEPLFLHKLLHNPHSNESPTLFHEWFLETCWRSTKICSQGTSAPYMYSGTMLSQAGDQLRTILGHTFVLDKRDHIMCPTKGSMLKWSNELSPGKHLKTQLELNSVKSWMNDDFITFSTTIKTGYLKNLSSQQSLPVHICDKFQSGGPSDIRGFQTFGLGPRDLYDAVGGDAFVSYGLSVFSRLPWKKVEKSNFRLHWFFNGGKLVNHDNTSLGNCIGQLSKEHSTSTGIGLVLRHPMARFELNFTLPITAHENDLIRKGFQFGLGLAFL
Put plainly: native gel or EMSA; complexome profiling (csBN–MS): yeast mitochondria lysed with 1% digitonin (protein:digitonin 1:8), blue native gradient gel 2–13%, cryo-sliced into 245 slices, quantitative MS; co-migration of abundance–mass profiles.

In experiment [4] the target is T6, Om45 (S. cerevisiae (endogenous in yeast)) (UniProt P16547).
T6 sequence: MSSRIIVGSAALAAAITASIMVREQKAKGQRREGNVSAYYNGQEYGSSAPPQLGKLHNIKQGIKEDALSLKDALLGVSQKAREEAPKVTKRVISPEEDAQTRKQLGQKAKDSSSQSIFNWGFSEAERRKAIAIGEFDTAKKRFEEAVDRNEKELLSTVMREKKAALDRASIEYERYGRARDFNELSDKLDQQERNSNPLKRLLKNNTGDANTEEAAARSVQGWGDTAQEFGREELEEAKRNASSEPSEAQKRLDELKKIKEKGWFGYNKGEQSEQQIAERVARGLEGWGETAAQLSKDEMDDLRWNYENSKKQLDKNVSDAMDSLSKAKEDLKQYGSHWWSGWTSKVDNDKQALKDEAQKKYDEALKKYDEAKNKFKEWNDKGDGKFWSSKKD
The experiment is described as above.

Take “HECT-type E3 ubiquitin ligase Rsp5 (from UniProt P39940 1-809) (enzyme)”: the binding result with Tom40–HA (S. cerevisiae) is “binds”.

With “AAA-ATPase Cdc48 (from UniProt P25694 1-835) (enzyme)”, in the experiment with Tom40–HA (S. cerevisiae), the binding result is “binds”.

B1: peptidyl-tRNA hydrolase Pth2 (protein, UniProt P34222 1-208)
chain: MEKMTVSSNYTIALWATFTAISFAVGYQLGTSNASSTKKSSATLLRSKEMKEGKLHNDTDEEESESEDESDEDEDIESTSLNDIPGEVRMALVIRQDLGMTKGKIAAQCCHAALSCFRHIATNPARASYNPIMTQRWLNAGQAKITLKCPDKFTMDELYAKAISLGVNAAVIHDAGRTQIAAGSATVLGLGPAPKAVLDQITGDLKLY
As to B1, the binding result with Ubx2–HA (S. cerevisiae) and with Tom40–HA (S. cerevisiae) was “binds” in each case.

B2: J protein Mdj2 (protein, UniProt P42834 1-146)
chain: MVLPIIIGLGVTMVALSVKSGLNAWTVYKTLSPLTIAKLNNIRIENPTAGYRDALKFKSSLIDEELKNRLNQYQGGFAPRMTEPEALLILDISAREINHLDEKLLKKKHRKAMVRNHPDRGGSPYMAAKINEAKEVLERSVLLRKR
With B2, the binding entry in experiment [1] and in experiment [2] was “binds” in each case.

B3: Cox2 (protein, UniProt P00410 16-251)
chain: DVPTPYACYFQDSATPNQEGILELHDNIMFYLLVILGLVSWMLYTIVMTYSKNPIAYKYIKHGQTIEVIWTIFPAVILLIIAFPSFILLYLCDEVISPAMTIKAIGYQWYWKYEYSDFINDSGETVEFESYVIPDELLEEGQLRLLDTDTSMVVPVDTHIRFVVTAADVIHDFAIPSLGIKVDATPGRLNQVSALIQREGVFYGACSELCGTGHANMPIKIEAVSLPKFLEWLNEQ
B3: the binding result with Cox4His (S. cerevisiae) is “binds”.

B4: Sam35 (protein, UniProt P14693 1-329)
chain: MVSSFSVPMPVKRIFDTFPLQTYAAQTDKDEAVALEIQRRSYTFTERGGGSSELTVEGTYKLGVYNVFLEANTGAALATDPWCLFVQLALCQKNGLVLPTHSQEQTPSHTCNHEMLVLSRLSNPDEALPILVEGYKKRIIRSTVAISEIMRSRILDDAEQLMYYTLLDTVLYDCWITQIIFCASDAQFMELYSCQKLSGSIVTPLDVENSLLQKLSAKSLKISLTKRNKFQFRHREIVKSMQGVYHNHHNSVNQEQVLNVLFENSKQVLLGLKDMLKSDGQPTYLHLKIASYILCITNVKEPIKLKTFVENECKELVQFAQDTLKNFVQ
As for B4, in experiment [3], the binding entry is given as “binds”.

B5: Ubx2 (protein, UniProt Q04228 1-584)
chain: MPVVNHEDSEFHLSHTEEDKLNEFQVITNFPPEDLPDVVRLLRNHGWQLEPALSRYFDGEWKGEPDQMGEPTQTSTPMAETLVPPALGPRPLLFTASLPVVRPLPANFRNDFRTIGLNGRSNTVWSMFESFSYDGNPFLFILLLIPRIINRLSATIFTFFCTLLSLHSISGGGNSGKPKISKVPKAPTRETHIPLAEILGDTKDKDAFCELKSFKPDISFNEALRIAKEEFKFMLLILVGDTYDTDTDTVDVNSKLLLEKILLNKKTLQYLRKIDNDLIIYLKCVHELEPWLVARQLGVRNTPEIFLIANVANKASHSETLPSQRLSILGKLKVNSLNRFLQSLTNVVEKYTPELVVNKTEMHELRMSREIKKLQEDAYKKSLEMDRIKAIEKEKSLKHAQDLKLNSTARQLKWLKACIDEIQPFETTGKQATLQFRTSSGKRFVKKFPSMTTLYQIYQSIGCHIYLAVYSSDPAEWSNALQDKIRQLSADDDMLCFKEGQLETATATTIEELGHIINNELTSFDLERGKLEFDFELVSPFPKYTVHPNEHMSVDQVPQLWPNGSLLVEALDEEDEEDEENEEQ
B5: the binding result with Tom40–HA (S. cerevisiae) is “binds”.

B6: Shy1 (protein, UniProt P53266 1-389)
chain: MSLLGARSTYRWFSIAASIPTKNAIGKSTYLLASRNQQYRGIITSTVDWKPIKTGKSPNDDSRRERSFGKKIVLGLMFAMPIISFYLGTWQVRRLKWKTKLIAACETKLTYEPIPLPKSFTPDMCEDWEYRKVILTGHFLHNEEMFVGPRKKNGEKGYFLFTPFIRDDTGEKVLIERGWISEEKVAPDSRNLHHLSLPQEEHLKVVCLVRPPKKRGSLQWAKKDPNSRLWQVPDIYDMARSSGCTPIQFQALYDMKDHPIIEEHTRNEASQNNSTSSLWKFWKREPTTAVNGTQAVDNNTSKPRSRQEMPTDQTIEFDERQFIKAGVPIGRKPTIDLKNNHLQYLVTWYGLSFLSTIFLIVALRKAKRGGVVSQDQLMKEKLKHSRKYM
For the molecule B6, in the experiment with Cox4His (S. cerevisiae), the binding entry is given as “binds”.

B7: Om14 (protein, UniProt P38325 1-134)
chain: MSATAKHDSNASPNSDSEDGHHHNNKKECAIEYLKARLNSASAVACGYLQAFVSKTQDFAKVCFLELQNPVVLVNLLLHSSVVCYLCNGYANHNARFLKGKPNSTVLATTAGALGLLTLDGIISKKYYSRYDKK
As to B7, the binding entry in experiment [4] is given as “binds”.
